The experiment concerns the target PICK1 as two differently tagged copies (mGFP-PICK1 and mCherry-PICK1) (UniProt Q9EP80). In words: FRET or BRET; FLIM-FRET (mGFP lifetime) in dendrites of cultured rat neurons co-expressing mGFP-PICK1 and mCherry-PICK1; vehicle or NMDA for 3 min, fixed at 0 or 5 min after stimulation.

Chains of the proteins cited; added tags and fusions are not shown.
UniProt Q9EP80: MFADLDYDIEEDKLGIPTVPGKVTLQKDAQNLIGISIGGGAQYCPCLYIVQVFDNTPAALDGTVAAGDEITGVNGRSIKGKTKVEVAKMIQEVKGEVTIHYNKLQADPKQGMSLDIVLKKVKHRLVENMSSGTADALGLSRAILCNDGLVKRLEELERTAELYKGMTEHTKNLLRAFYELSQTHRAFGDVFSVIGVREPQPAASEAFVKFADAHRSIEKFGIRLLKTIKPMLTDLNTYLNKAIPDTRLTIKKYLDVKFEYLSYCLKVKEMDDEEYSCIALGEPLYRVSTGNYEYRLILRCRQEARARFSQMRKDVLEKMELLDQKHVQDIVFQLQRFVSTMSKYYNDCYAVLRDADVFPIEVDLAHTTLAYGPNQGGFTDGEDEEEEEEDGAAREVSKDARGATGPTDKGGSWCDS

These are yes or no findings as the source states them, for the method shown. Binding seen in cells or lysates may run through a third protein. Some entries that bind do so weakly or less than the wild type.

The values that follow come from paper PMC9201945 (Frontiers in Molecular Neuroscience, 2022).

Take “PICK1 as two differently tagged copies (mGFP-PICK1 and mCherry-PICK1) (from UniProt Q9EP80 1-416)”: the binding result is on record as “binds”.
